Source: US20240287028A1, “HERBICIDAL PHENYLURACILS” (BASF SE, priority 2021, published 2024)
Some results were stated once for a whole list of compounds, not compound by compound.

Key:
Type in all cases: in vivo
Amaranthus retroflexus [1] = test: greenhouse herbicidal test, post-emergence treatment; conditions: post-emergent; application rate 16 g/ha; scale 0 to 100
Chenopodium album = test: as above; conditions: post-emergent; application rate 16 g/ha; scale 0 to 100
Polygonum convolvulus [2] = test: as above; conditions: post-emergent; application rate 16 g/ha; scale 0 to 100
Setaria viridis [3] = test: as above; conditions: post-emergent; application rate 16 g/ha; scale 0 to 100
Amaranthus retroflexus [4] = test: greenhouse herbicidal test, pre-emergence treatment; conditions: pre-emergent; application rate 16 g/ha; scale 0 to 100
Polygonum convolvulus [5] = test: as above; conditions: pre-emergent; application rate 16 g/ha; scale 0 to 100
Setaria viridis [6] = test: as above; conditions: pre-emergent; application rate 16 g/ha; scale 0 to 100

| SMILES | herbicidal activity against AMARE (Amaranthus retroflexus [1]) | herbicidal activity against CHEAL (Chenopodium album) | herbicidal activity against POLCO (Polygonum convolvulus [2]) | herbicidal activity against SETVI (Setaria viridis [3]) | herbicidal activity against AMARE (Amaranthus retroflexus [4]) | herbicidal activity against POLCO (Polygonum convolvulus [5]) | herbicidal activity against SETVI (Setaria viridis [6]) |
| --- | --- | --- | --- | --- | --- | --- | --- |
| CCOC(=O)COc1ncccc1Oc1cc(-n2c(=O)cc(C(C)(F)F)n(C)c2=O)c(F)cc1Cl [Example 1.1, Ethyl 2-[[3-[2-chloro-5-[4-(1,1-difluoroethyl)-3-methyl-2,6-dioxo-pyrimidin-1-yl]-4-fluoro-phenoxy]-2-pyridyl]oxy]acetate] | very good herbicidal activity (a very good herbicidal activity is given at values of at least 85) | very good herbicidal activity (a very good herbicidal activity is given at values of at least 85) | very good herbicidal activity (a very good herbicidal activity is given at values of at least 85) | very good herbicidal activity (a very good herbicidal activity is given at values of at least 85) | – | – | – |
| CCOC(=O)COc1ccccc1Oc1cc(-n2c(=O)cc(C(C)(F)F)n(C)c2=O)c(F)cc1Cl [Example 1.2] | very good herbicidal activity (a very good herbicidal activity is given at values of at least 85) | very good herbicidal activity (a very good herbicidal activity is given at values of at least 85) | very good herbicidal activity (a very good herbicidal activity is given at values of at least 85) | very good herbicidal activity (a very good herbicidal activity is given at values of at least 85) | – | – | – |
| COCCOC(=O)COc1ncccc1Oc1cc(-n2c(=O)cc(C(C)(F)F)n(C)c2=O)c(F)cc1Cl [Example 1.6] | – | – | – | – | very good herbicidal activity (a very good herbicidal activity is given at values of at least 85) | very good herbicidal activity (a very good herbicidal activity is given at values of at least 85) | very good herbicidal activity (a very good herbicidal activity is given at values of at least 85) |
